The test in a line: IkB Signaling. Conditions: ABC-DLBCL IkBa-CBG/CBR dual luciferase ratio (green luciferase fused to IkBa over red control in OCI-Ly3 lymphoma cells), 4 h. An outline of the steps: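 Luminescence ratio of IκBα-fused green versus native red beetle luciferase in OCI-Ly3 cells, 4 h post-doxycycline with compound; red signal alone, scaled from basal (0%) to zero light (-100%), flagged nonspecific or cytotoxic effects.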
The mark [1] stands for this setting: measured here: control luc red channel unless noted.

SMILES strings stand for the structures. Some of the results follow. Shown are side measurements of this screen, not its main read-out; they come without a call. Most of these compounds were active or inconclusive in the main read-out, so they are no random draw. Potencies come from curve fits of mixed quality, noted in brackets.

What is called AC50 is the concentration giving half of the maximal activity seen.

Take `Brc1cccc(-c2nnc(SCc3nc4ccccc4[nH]3)o2)c1`: the AC50 under setting [1] was 25.1 µM [falling, single point].
Take `Cc1nn2c(=O)cc(COC(=O)c3ccccc3NC(=O)C3CCCCC3)nc2s1`: under setting [1], the AC50 was 39.8 µM [falling, single point].
Still for that read-out and setting: under `CCOc1ccc(N(CC)S(=O)(=O)N2CCCC(C(=O)NCc3ccccc3OCC)C2)cc1` (stereo unspecified) stands 12.6 µM [falling, partial curve]; under `COc1cc(-c2cc3n(C)c(C)c(CCC(=O)NC4CCC(C)CC4)c(=O)n3n2)cc(OC)c1OC` (stereo unspecified), 39.8 µM [falling, single point].
The same measure, in the same setting: in the case of `O=C(NC1CCCC1)c1ccc2c(c1)N(Cc1c(F)cccc1Cl)C(=O)c1ccccc1S2` it was 1 µM [falling, partial curve]; in that of `Cc1ccc(-c2cc(C(=O)Nc3cc(C)ccc3C)[nH]n2)c(O)c1`, 7.94e-05 µM [falling, full curve]; in that of `CCc1ccc(C2=CC(c3cccc(OC)c3OC)n3c(nc4ccccc43)N2)cc1` (stereo unspecified), 0.631 µM [falling, partial curve].
On the same count and under the same terms, under `N#Cc1nc(-c2cccs2)oc1N1CCN(Cc2ccccc2)CC1` stands 15.8 µM [falling, partial curve]; under `CCCCCOC(=O)C1=C(C)N(C)C(=O)NC1c1cc(Br)c(O)c(OC)c1` (stereo unspecified), 25.1 µM [falling, single point]; under `Cc1ccc(N2CCN(S(=O)(=O)c3nnc(NC(=O)c4cccc(F)c4)s3)CC2)cc1`, 39.8 µM [falling, single point].
Regarding `CCCN1CCN(CCCNC(=O)c2cc3c(=O)[nH]c4ccccc4c3s2)CC1`, the AC50 under setting [1] was 10 µM [falling, partial curve].
In the case of `O=C(CCSCCc1ccccn1)Nc1ccccc1C(F)(F)F`, the AC50 under setting [1] is 39.8 µM [rising, partial curve, poor fit].
Consider `Cc1ccc(-n2ncc3c(NCCc4ccccc4)ncnc32)cc1Cl`, for which the concentration at half-maximal activity (AC50) under setting [1] is 15.8 µM [falling, partial curve].
On to `CN(Cc1ccccc1)S(=O)(=O)c1ccc2[nH]cc(C(=O)NCC3CCCO3)c(=O)c2c1` (stereo unspecified), for which the AC50 under setting [1] was 25.1 µM [falling, partial curve].
As to `COCCCNc1oc(-c2ccc(COc3ccccc3C)o2)nc1C#N`, the AC50 under setting [1] was 31.6 µM [falling, single point].
As to `COc1ccc(OC)c(NC(=O)c2cc3n(n2)C(C(F)(F)F)CC(c2ccc4c(c2)OCO4)N3)c1` (stereo unspecified), the AC50 under setting [1] is 10 µM [falling, partial curve].
On the same count and under the same terms, under `COc1cccc(OCCn2c(-c3ccc(Cl)cc3)nc3ccccc3c2=O)c1` stands 20 µM [falling, partial curve].
The same measure, in the same setting: in the case of `CCC(CC)C(=O)Nc1cccc(-c2cn3cccnc3n2)c1` it was 2.51 µM [rising, partial curve].
Consider `CCC1=Nc2cc(C(=O)NC3CCCC3)ccc2Sc2ccc(Cl)cc21`, for which the AC50 reads like this: (measured here: IkB-luc green channel) 3.16 µM [rising, full curve, poor fit]; (measured here: control luc red channel) 39.8 µM [falling, single point].
As to `COc1ccccc1N1CCN(C(=O)CCCn2c(=O)[nH]c3ccsc3c2=O)CC1`, the AC50 under setting [1] was 25.1 µM [falling, partial curve, poor fit].
Turning to `Cc1ccc2nc3sc(C(=O)Nc4ccc(F)cc4)cc3cc2c1`, the AC50 under setting [1] is 5.01 µM [falling, full curve, poor fit].
Same read-out and setting: in the case of `O=C(COc1ccccc1)N1CCc2ccccc2C1` it was 12.6 µM [falling, partial curve].
Same read-out and setting: under `CN(C(=O)CSc1nc2ccc(NC(=O)c3ccco3)cc2s1)c1ccccc1` stands 31.6 µM [falling, single point].
Turning to `CCn1c(=O)cc(OCC(=O)NCCCN2CCN(c3cccc(Cl)c3)CC2)c2ccccc21`, under setting [1], the AC50 was 12.6 µM [falling, partial curve].
Same read-out and setting: in the case of `Cc1ccc(CNS(=O)(=O)c2ccc(F)c(C(=O)Nc3ccc(C)c(F)c3)c2)cc1` it was 0.01 µM [falling, full curve, poor fit]; in that of `Cc1cc(NC(=O)c2cc(-c3ccncc3)nc3c(C)cccc23)no1`, 12.6 µM [falling, partial curve].
The same measure, in the same setting: in the case of `O=C(Nc1ccc(F)cc1)c1ccc(-n2cnc3cccnc32)cc1` it was 15.8 µM [falling, partial curve]; in that of `O=C(NCCc1ccc(Cl)cc1)c1ccc(CS(=O)(=O)Cc2ccc(F)cc2)o1`, 0.126 µM [rising, full curve, poor fit].
For `CCCC(=O)N(c1ccc2oc3c(c2c1)CCCC3)S(=O)(=O)c1ccc(CC)cc1`, the AC50 under setting [1] is 12.6 µM [falling, partial curve].
In the case of `O=C(O)c1c[nH]c2cc(OCc3ccccc3)ccc2c1=O`, under setting [1], the AC50 is 0.316 µM [falling, full curve].
With `COc1ccc(OC)c(-n2c(=O)[nH]c3cc(C(=O)NCCc4ccc(OC)c(OC)c4)ccc3c2=O)c1`, under setting [1], the AC50 was 25.1 µM [falling, partial curve].
For the compound `COc1ccc(NCc2nc3ccccc3n2CCOc2ccccc2C)cc1`, the AC50 under setting [1] was 3.98 µM [falling, full curve].
On to `C1=C(CCNc2nnnn2-c2ccccc2)CCCC1`, for which the half-maximal activity concentration (AC50) under setting [1] was 12.6 µM [falling, partial curve].
Regarding `CC(=O)Nc1cccc(Oc2cc(C#N)c(C#N)cc2N2CCCCCC2)c1`, the AC50 under setting [1] was 15.8 µM [falling, partial curve].
On the same count and under the same terms, under `Cc1cc(C)c2c(n1)nn1c(C)c(CCC(=O)Nc3ccc(C)c(Cl)c3)c(C)nc21` stands 3.16 µM [falling, single point]; under `Cc1cn2c(=O)cc(COC(=O)c3cccc(NC(=O)C(C)Oc4ccccc4)c3)nc2s1` (stereo unspecified), 20 µM [falling, partial curve]; under `CC1=C(C(=O)Nc2ccc(Cl)cc2)C(c2cccs2)n2nc(SCc3cccc(Cl)c3)nc2N1` (stereo unspecified), 1 µM [falling, partial curve].
In the case of `CCn1c(Oc2ccc(F)cc2F)nc2c1c(=O)n(C)c(=O)n2C`, the AC50 under setting [1] was 12.6 µM [falling, partial curve].
For the compound `CCc1cc2c(cc3c(=O)n(CC(=O)NCc4cccc(Cl)c4)nc(CC)n32)s1`, the AC50 under setting [1] was 7.94 µM [rising, partial curve].
Still for that read-out and setting: in the case of `Cc1cc(Nc2ccc(F)cc2)n2nc(C)nc2n1` it was 10 µM [falling, partial curve].
